# Results: publication PMC7862700
# The list shows a part of the results, in another mix than the full data. At the low end of the ranking the order means little.
# Legend:
# Experiment in all cases: DAPPL (digital affinity profiling via proximity ligation, sequencing)
# Conditions in all cases: 10 mM Tris-HCl pH 7.5, 50 mM NaCl, 1 mM DTT, 4% glycerol, room temperature, 30 min; GST-TFs on glutathione beads, 16-mer random dsDNA library, 0.1% …; high values mean tight binding; double strand, one strand shown; scale: fold enrichment (6-mer frequency, TF over GST control)
# SPIC = target: T1, SPIC (UniProt Q8N5J4)
# T1 sequence: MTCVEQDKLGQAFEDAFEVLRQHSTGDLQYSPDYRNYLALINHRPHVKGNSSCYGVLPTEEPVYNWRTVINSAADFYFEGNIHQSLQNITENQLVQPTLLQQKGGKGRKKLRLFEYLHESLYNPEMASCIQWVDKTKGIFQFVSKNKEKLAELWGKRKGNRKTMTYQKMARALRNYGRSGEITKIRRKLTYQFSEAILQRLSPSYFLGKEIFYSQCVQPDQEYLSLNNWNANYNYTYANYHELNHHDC
# ETS2 = target: T2, ETS2 (UniProt P15036)
# T2 sequence: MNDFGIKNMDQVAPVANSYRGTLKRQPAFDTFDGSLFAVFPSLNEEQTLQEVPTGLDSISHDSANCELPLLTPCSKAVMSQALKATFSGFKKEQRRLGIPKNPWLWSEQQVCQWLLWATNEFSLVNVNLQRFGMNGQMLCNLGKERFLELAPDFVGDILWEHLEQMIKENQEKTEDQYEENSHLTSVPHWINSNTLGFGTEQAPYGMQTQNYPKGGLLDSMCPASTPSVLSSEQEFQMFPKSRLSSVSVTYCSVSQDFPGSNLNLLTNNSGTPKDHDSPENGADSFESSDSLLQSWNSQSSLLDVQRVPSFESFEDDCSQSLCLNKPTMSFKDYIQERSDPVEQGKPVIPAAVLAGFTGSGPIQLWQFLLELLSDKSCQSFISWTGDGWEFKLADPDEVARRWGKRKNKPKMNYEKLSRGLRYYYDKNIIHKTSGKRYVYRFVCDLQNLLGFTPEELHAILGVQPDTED
# ELK1 = target: T3, ELK1 (UniProt P19419)
# T3 sequence: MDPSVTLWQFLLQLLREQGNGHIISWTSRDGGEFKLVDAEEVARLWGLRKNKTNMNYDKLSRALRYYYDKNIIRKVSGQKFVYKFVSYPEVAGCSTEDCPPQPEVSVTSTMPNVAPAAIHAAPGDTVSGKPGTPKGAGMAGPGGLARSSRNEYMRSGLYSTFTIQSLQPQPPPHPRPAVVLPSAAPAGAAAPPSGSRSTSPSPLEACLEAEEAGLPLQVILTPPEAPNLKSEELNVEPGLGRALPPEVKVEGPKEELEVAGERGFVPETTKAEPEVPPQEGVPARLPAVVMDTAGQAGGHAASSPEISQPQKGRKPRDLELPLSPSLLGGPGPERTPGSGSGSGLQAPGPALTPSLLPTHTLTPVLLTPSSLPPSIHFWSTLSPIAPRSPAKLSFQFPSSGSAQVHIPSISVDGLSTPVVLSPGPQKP
# ELK3 = target: T4, ELK3 (UniProt P41970)
# T4 sequence: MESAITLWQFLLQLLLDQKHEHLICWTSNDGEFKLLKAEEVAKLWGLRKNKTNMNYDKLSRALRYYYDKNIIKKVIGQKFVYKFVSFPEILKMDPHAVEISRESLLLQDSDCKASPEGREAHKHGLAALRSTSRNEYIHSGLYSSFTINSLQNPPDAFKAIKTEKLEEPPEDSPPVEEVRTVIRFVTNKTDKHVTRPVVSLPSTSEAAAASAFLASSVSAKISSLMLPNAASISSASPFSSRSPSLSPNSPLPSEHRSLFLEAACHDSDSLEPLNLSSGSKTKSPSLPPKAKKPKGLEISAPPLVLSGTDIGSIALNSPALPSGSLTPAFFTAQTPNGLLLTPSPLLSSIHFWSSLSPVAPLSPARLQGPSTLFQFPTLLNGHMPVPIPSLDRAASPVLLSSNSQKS
Sequence,binding signal (SPIC),binding signal (ETS2),binding signal (ELK1),binding signal (ELK3)
TGTGCG,0.938,1.05,–,–
TCAAGC,0.962,–,0.965,1.09
CGCGGC,0.855,0.951,–,–
GTTTGC,1.2,1.08,–,–
CGCCAA,1.11,–,1.02,1.06
AACACG,1.33,–,1.23,1.16
AGGATG,0.918,–,0.964,0.895
GTAATA,1.27,1.11,–,–
TGCAAG,0.936,–,1.11,0.92
CCGGTC,1.01,–,1.18,1.18
TTACGC,0.981,–,1.06,1.21
AAGTGT,1.6,–,1.29,1.37
TCGTCC,0.979,0.981,–,–
GGACTT,0.996,1.13,–,–
CCAATT,1.31,–,1.24,1.18
CCGAAA,1.31,–,1.23,0.997
TATAGA,1.04,1.04,–,–

# Part of the list above, with bars between the fields:
Sequence | binding signal (SPIC) | binding signal (ETS2) | binding signal (ELK1) | binding signal (ELK3)
AACACG | 1.33 | – | 1.23 | 1.16
AAGTGT | 1.6 | – | 1.29 | 1.37

# Later entries.

Sequence,binding signal (SPIC),binding signal (ETS2),binding signal (ELK1),binding signal (ELK3)
CCGAAC,1.32,–,1.21,1.33
GTAACC,0.983,–,0.991,1.04
GCCCTC,1.26,1.24,–,–
TTTAGT,1.15,–,0.972,1.11
TGTCAC,1.31,–,1.11,1.2
ATGCTG,1.14,–,0.961,0.923
ATTAGT,0.954,–,0.977,0.933
CTGAAA,1.35,–,1.14,1.03
TTACTA,1.38,–,1.31,1.31
TGCCAT,1.12,–,1.06,1.12
GCAATT,0.935,1.09,–,–
GAATTG,0.932,–,1.12,1.21
TTCGCG,1.16,–,1.07,1.15
ACAATT,1.17,1.29,–,–
AACTGA,1.37,1.16,–,–
ATCGCA,0.98,1.02,–,–
GTGTTC,1.36,1.17,–,–
